From the supplement of paper PMC10373366
Structures can show the parent of a compound that is named as a salt. The list shows a part of the results. Repeats are few or missing, and single values can be far off.

Tested on: patient-derived ovarian cancer cells (PDC)
Experiment: cell growth inhibition ratio vs untreated control (CCK8); higher = stronger inhibition of cell viability
Settings: 10 µM; 48 h
Description: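 Natural product library (Topscience) screened at 10 µM final concentration for 48 h on ovarian cancer A2780 cells and patient-derived ovarian cancer cells (PDC) in 96-well plates; viability read by CCK8 and reported as inhibition ratio (%) relative to untreated control. Single-dose primary screen.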

Structure (SMILES)	cell growth inhibition ratio [%]
CCOC(=O)c1cc(O)c(O)c(O)c1 [Ethyl gallate]	9.65
O=c1cc(-c2ccc(O)c(-c3c(O)cc(O)c4c(=O)cc(-c5ccc(O)cc5)oc34)c2)oc2cc(O)cc(O)c12 [Amentoflavone]	-12.4
CC(C)=CCC[C@](C)(O[C@@H]1O[C@H](CO[C@@H]2OC[C@H](O)[C@H](O)[C@H]2O)[C@@H](O)[C@H](O)[C@H]1O)[C@H]1CC[C@]2(C)[C@@H]1[C@H](O)C[C@@H]1[C@@]3(C)CC[C@H](O[C@@H]4O[C@H](CO)[C@@H](O)[C@H](O)[C@H]4O[C@@H]4O[C@H](CO)[C@@H](O)[C@H](O)[C@H]4O)C(C)(C)[C@@H]3CC[C@]12C [Ginsenoside Rb2]	-23.3
NC(=O)CCC(N)C(=O)O (racemic) [DL-Glutamine]	7.54
O=C1O[C@H]([C@H](O)CO)C([O-])=C1O.[Na+] [Sodium erythorbate]	-16.8
C[C@H]1[C@H](C)CC[C@]2(C(=O)O[C@@H]3O[C@H](CO[C@@H]4O[C@H](CO)[C@@H](O[C@@H]5O[C@@H](C)[C@H](O)[C@@H](O)[C@H]5O)[C@H](O)[C@H]4O)[C@@H](O)[C@H](O)[C@H]3O)CC[C@]3(C)C(=CC[C@@H]4[C@@]5(C)C[C@@H](O)[C@H](O)[C@@](C)(CO)[C@@H]5[C@H](O)C[C@]43C)[C@H]12 [Madecassoside]	-0.141
CO[C@]1(CC[C@@H](C)CO[C@@H]2O[C@H](CO)[C@@H](O)[C@H](O)[C@H]2O)O[C@H]2C[C@H]3[C@@H]4CC=C5C[C@@H](O[C@@H]6O[C@H](CO)[C@@H](O[C@@H]7O[C@@H](C)[C@H](O)[C@@H](O)[C@H]7O)[C@H](O)[C@H]6O[C@@H]6O[C@@H](C)[C@H](O)[C@@H](O)[C@H]6O)CC[C@]5(C)[C@H]4CC[C@]3(C)[C@H]2[C@@H]1C [Methyl protodioscin]	92.3
O=C(O[C@@H]1Cc2c(O)cc(O)cc2O[C@H]1c1cc(O)c(O)c(O)c1)c1cc(O)c(O)c(O)c1 [(-)-Gallocatechin gallate]	1.48
CC1(C)CC[C@]2(C(=O)O)CC[C@]3(C)C(=CC[C@@H]4[C@@]5(C)CC[C@H](O)[C@@](C)(CO)[C@@H]5CC[C@]43C)[C@@H]2C1 [Hederagenin]	-13.3
CC(C)(O)[C@H]1CC[C@@](C)(C2[C@@H](O)C[C@@]3(C)[C@@H]4C[C@H](O)C5C(C)(C)[C@@H](O)CCC56CC46CC[C@]23C)O1 (stereo partly specified) [Cycloastragenol]	15.7
NC(=O)NC1NC(=O)NC1=O (stereo unspecified) [Allantoin]	-7.36
C=C(C)[C@@H]1CC[C@]2(C)CC[C@]3(C)[C@H](CC[C@@H]4[C@@]5(C)CC[C@H](O)C(C)(C)[C@@H]5CC[C@]43C)[C@@H]12 [Lupeol]	6.17
COC(=O)[C@@H]1[C@H]2C[C@H]3c4[nH]c5ccccc5c4CCN3C[C@@H]2CC[C@@H]1O [Yohimbine hydrochloride]	7.47
COc1ccc(-c2oc3c(CC=C(C)C)c(O)cc(O)c3c(=O)c2O)cc1 [Icaritin]	-0.12
O=c1cc[nH]c(=O)[nH]1 [Uracil]	-3.09
N[C@H]1C(O)O[C@H](CO)[C@@H](O)[C@@H]1O (stereo partly specified) [Glucosamine]	4.21
CN1C(=O)CC[C@H]1c1cccnc1 [(-)-Cotinine]	-2.07
C[C@@H]1CC[C@]2(C(=O)O[C@@H]3O[C@H](CO)[C@@H](O)[C@H](O)[C@H]3O)CC[C@]3(C)C(=CC[C@@H]4[C@@]5(C)CC[C@H](O)[C@@](C)(CO)[C@@H]5CC[C@]43C)[C@@H]2[C@]1(C)O [Pedunculoside]	22.3
CC(C)c1cc(C(C)C)c(CC(=O)NS(=O)(=O)Oc2c(C(C)C)cccc2C(C)C)c(C(C)C)c1 [Avasimibe]	-14.8
CC[C@H](C)CCCCC(=O)N[C@@H](CCNCS(=O)(=O)O)C(=O)N[C@H](C(=O)N[C@@H](CCNCS(=O)(=O)O)C(=O)N[C@H]1CCNC(=O)[C@H]([C@@H](C)O)NC(=O)[C@H](CCNCS(=O)(=O)O)NC(=O)[C@H](CCN)NC(=O)[C@H](CC(C)C)NC(=O)[C@@H](CC(C)C)NC(=O)[C@H](CCNCS(=O)(=O)O)NC1=O)[C@@H](C)O [Colistimethate Sodium]	11
O=c1[nH]cnc2c1ncn2[C@@H]1O[C@H](CO)[C@@H](O)[C@H]1O [Inosine]	1.24

Some of the entries above in another layout.
Structure (SMILES) | cell growth inhibition ratio [%]
CCOC(=O)c1cc(O)c(O)c(O)c1 [Ethyl gallate] | 9.65
O=c1cc(-c2ccc(O)c(-c3c(O)cc(O)c4c(=O)cc(-c5ccc(O)cc5)oc34)c2)oc2cc(O)cc(O)c12 [Amentoflavone] | -12.4
